# The list shows a part of the results.
# B1: Epf (Streptococcus pyogenes) (protein)
# chain: GDHGPEFNGVMVVKAAEAEELPDDLMNFKGTWEVSADGSSGRFFSKGATDSYVFHLIPAKDVKKPGWREHNEVKDSYIKIDKQSIAARYKTSTTAPYSVAFKVNTKSLIKDHDYKITFEQGQIASGITVDYRIGSAFNKTTDDSFKISDESKYASNVKIEGEEQGFKQREQGDKTISFRTLKEGPMSLVLLSKVEKKPQGDLDVEFKNLKIIDVTNPSQLDKGVAYVGNKNVQLTLKSDDGRTNFEGDEISLFNSRGELLQTVTVTKDQQNPISITLSEDQAKSLKNKEKLKVSIKQKQSKKTSKDFFFEVGIDPKVEAKQKEKLLELDKVKKQIEDSINGDAWLPEKPVDLQGDHGLSAWSHPQFEK
# Experiments:
# Test in all cases: glycan array binding signal (z-score within array); higher = stronger binding
# Details in all cases: glycan notation: IUPAC condensed, linker removed
# [1] = molecular target: Fuc(a1-2)Gal(b1-4)GlcNAc(b1-3)Gal(b1-4)GlcNAc(b1-3)Gal(b1-4)GlcNAc
# Summary of the method: (§1)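 The binding signal is a Z-score computed within each array. Data were drawn from 3228 arrays in the Consortium for Functional Glycomics database, restricted to those with a known protein sequence. Scores were averaged over arrays of the same protein sequence at different concentrations or buffers, and over linkers, and negative values can be taken as non-binding.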
# [2] = molecular target: Fuc(a1-2)Gal(b1-4)GlcNAc(b1-3)GalNAc
# Summary of the method: as §1
# [3] = molecular target: Fuc(a1-2)Gal(b1-4)GlcNAc(b1-3)[Fuc(a1-2)Gal(b1-4)GlcNAc(b1-6)]GalNAc
# Summary of the method: as §1
# [4] = molecular target: Fuc(a1-2)Gal(b1-4)GlcNAc(b1-3)[Fuc(a1-3)[Gal(b1-4)]GlcNAc(b1-6)]Gal(b1-4)Glc
# Summary of the method: as §1
# [5] = molecular target: Fuc(a1-2)Gal(b1-4)GlcNAc(b1-6)GalNAc
# Summary of the method: as §1
# [6] = molecular target: Fuc(a1-2)Gal(b1-4)GlcNAc6S
# Summary of the method: as §1
# [7] = molecular target: Fuc(a1-2)Gal(b1-4)[Fuc(a1-3)]GlcNAc
# Summary of the method: as §1
# [8] = molecular target: Fuc(a1-2)Gal(b1-4)[Fuc(a1-3)]GlcNAc(b1-2)Man(a1-3)[Fuc(a1-2)Gal(b1-4)[Fuc(a1-3)]GlcNAc(b1-2)Man(a1-6)]Man(b1-4)GlcNAc(b1-4)[Fuc(a1-6)]GlcNAc
# Summary of the method: as §1
# [9] = molecular target: Fuc(a1-2)Gal(b1-4)[Fuc(a1-3)]GlcNAc(b1-2)[Fuc(a1-2)Gal(b1-4)[Fuc(a1-3)]GlcNAc(b1-4)]Man(a1-3)[Fuc(a1-2)Gal(b1-4)[Fuc(a1-3)]GlcNAc(b1-2)Man(a1-6)]Man(b1-4)GlcNAc(b1-4)GlcNAc
# Summary of the method: as §1
# [10] = molecular target: Fuc(a1-2)Gal(b1-4)[Fuc(a1-3)]GlcNAc(b1-3)Gal(b1-4)[Fuc(a1-3)]GlcNAc
# Summary of the method: as §1
# [11] = molecular target: Fuc(a1-2)Gal(b1-4)[Fuc(a1-3)]GlcNAc(b1-3)Gal(b1-4)[Fuc(a1-3)]GlcNAc(b1-3)Gal(b1-4)[Fuc(a1-3)]GlcNAc
# Summary of the method: as §1
# [12] = molecular target: Fuc(a1-2)Gal(b1-4)[Fuc(a1-3)]GlcNAc(b1-3)GalNAc
# Summary of the method: as §1
# [13] = molecular target: Fuc(a1-2)Gal(b1-4)[Fuc(a1-3)]GlcNAc(b1-3)[Neu5Ac(a2-6)Gal(b1-4)GlcNAc(b1-6)]Gal(b1-4)Glc
# Summary of the method: as §1
# [14] = molecular target: Fuc(a1-2)Gal3S(b1-4)GlcNAc
# Summary of the method: as §1
# [15] = molecular target: Fuc(a1-2)Gal6S(b1-3)GlcNAc
# Summary of the method: as §1
# [16] = molecular target: Fuc(a1-2)Gal6S(b1-3)GlcNAc6S
# Summary of the method: as §1
# Fuc(a1-2)Gal6S(b1-4)Glc = molecular target: Fuc(a1-2)Gal6S(b1-4)Glc
# Summary of the method: as §1
# [17] = molecular target: Fuc(a1-2)Gal6S(b1-4)Glc6S
# Summary of the method: as §1
# Fuc(a1-2)[Gal(a1-3)]Gal = molecular target: Fuc(a1-2)[Gal(a1-3)]Gal
# Summary of the method: as §1
# [18] = molecular target: Fuc(a1-2)[Gal(a1-3)]Gal(b1-3)GalNAc
# Summary of the method: as §1
# [19] = molecular target: Fuc(a1-2)[Gal(a1-3)]Gal(b1-3)GalNAc(b1-3)Gal(a1-4)Gal(b1-4)Glc
# Summary of the method: as §1
# [20] = molecular target: Fuc(a1-2)[Gal(a1-3)]Gal(b1-3)GlcNAc
# Summary of the method: as §1
# [21] = molecular target: Fuc(a1-2)[Gal(a1-3)]Gal(b1-3)GlcNAc(b1-2)Man(a1-3)[Fuc(a1-2)[Gal(a1-3)]Gal(b1-3)GlcNAc(b1-2)Man(a1-6)]Man(b1-4)GlcNAc(b1-4)GlcNAc
# Summary of the method: as §1
# [22] = molecular target: Fuc(a1-2)[Gal(a1-3)]Gal(b1-3)GlcNAc(b1-2)Man(a1-3)[Fuc(a1-2)[Gal(a1-3)]Gal(b1-3)GlcNAc(b1-2)Man(a1-6)]Man(b1-4)GlcNAc(b1-4)[Fuc(a1-6)]GlcNAc
# Summary of the method: as §1
# [23] = molecular target: Fuc(a1-2)[Gal(a1-3)]Gal(b1-3)GlcNAc(b1-3)GalNAc
# Summary of the method: as §1
# [24] = molecular target: Fuc(a1-2)[Gal(a1-3)]Gal(b1-3)GlcNAc(b1-6)GalNAc
# Summary of the method: as §1
# [25] = molecular target: Fuc(a1-2)[Gal(a1-3)]Gal(b1-4)Glc
# Summary of the method: as §1
# [26] = molecular target: Fuc(a1-2)[Gal(a1-3)]Gal(b1-4)GlcNAc
# Summary of the method: as §1
# [27] = molecular target: Fuc(a1-2)[Gal(a1-3)]Gal(b1-4)GlcNAc(b1-2)Man
# Summary of the method: as §1
# [28] = molecular target: Fuc(a1-2)[Gal(a1-3)]Gal(b1-4)GlcNAc(b1-2)Man(a1-3)[Fuc(a1-2)[Gal(a1-3)]Gal(b1-4)GlcNAc(b1-2)Man(a1-6)]Man(b1-4)GlcNAc(b1-4)GlcNAc
# Summary of the method: as §1
binder,measurement,setting,value
B1,glycan array binding signal (z-score),[1],0.943
same,glycan array binding signal (z-score),[2],-1.19
same,glycan array binding signal (z-score),[3],0.153
same,glycan array binding signal (z-score),[4],2.21
same,glycan array binding signal (z-score),[5],-0.587
same,glycan array binding signal (z-score),[6],0.501
same,glycan array binding signal (z-score),[7],-0.853
same,glycan array binding signal (z-score),[8],-1.29
same,glycan array binding signal (z-score),[9],0.228
same,glycan array binding signal (z-score),[10],-0.184
same,glycan array binding signal (z-score),[11],0.128
same,glycan array binding signal (z-score),[12],0.994
same,glycan array binding signal (z-score),[13],-0.99
same,glycan array binding signal (z-score),[14],0.41
same,glycan array binding signal (z-score),[15],0.24
same,glycan array binding signal (z-score),[16],0.499
same,glycan array binding signal (z-score),Fuc(a1-2)Gal6S(b1-4)Glc,0.606
same,glycan array binding signal (z-score),[17],0.2
same,glycan array binding signal (z-score),Fuc(a1-2)[Gal(a1-3)]Gal,0.412
same,glycan array binding signal (z-score),[18],0.862
same,glycan array binding signal (z-score),[19],-0.654
same,glycan array binding signal (z-score),[20],-0.189
same,glycan array binding signal (z-score),[21],-0.435
same,glycan array binding signal (z-score),[22],1.45
same,glycan array binding signal (z-score),[23],-1.16
same,glycan array binding signal (z-score),[24],-0.371
same,glycan array binding signal (z-score),[25],-0.394
same,glycan array binding signal (z-score),[26],-0.265
same,glycan array binding signal (z-score),[27],0.986
same,glycan array binding signal (z-score),[28],1.75
